From PubChem BioAssay AID504467 (National Center for Advancing Translational Sciences (NCATS), 2011)
Out of some 330,000 compounds screened, about 7,700 (2.3%) were called active. Inconclusive means that the source gave no clear call. Such entries were picked first, then a sample of the others. The call rests on the fitted dose curve; in most records, active means well fitted inhibition curve with a large enough effect; inconclusive means small, poorly fitted or top-dose-only effect, or effect the other way; inactive means flat fitted curve, though single readings scatter. Where the call is inconclusive, the potency comes from a doubtful curve fit.

test: qHTS screen for small molecules that inhibit ELG1-dependent DNA repair in human embryonic kidney (HEK293T) cells expressing luciferase-tagged ELG1; conditions: HEK293T ELG1-luciferase reporter, luminescence, 16 h, DNA damage induced by 5-fluorouridine; activity change, negative = inhibition: at 46.1 µM (top of the series); further: nearly all actives have a fitted effect of over 55% in size
Outline: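 Step one: seed 2,000 cells per well. Step two: pin-transfer compound or DMSO alongside 5-fluorouridine. Step three: incubate 16 hr, 37 °C, 5% CO2. Step four: add ONE-Glo, wait 30 min, read luminescence.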
On the % scale 0 is the no-effect control and ±100 the full control effect; potency means the concentration at half of the fitted maximal effect.

SMILES | Potency | activity change, negative = inhibition
CCOC(=O)c1c(C)[nH]c(C)c1C(=O)CSc1nnnn1-c1ccccc1 | inconclusive: 20.6 µM [inhibitor, single point] | –
Cc1ccsc1-c1nc(CSCC(=O)N2CCN(c3ccccc3)CC2)c(C)o1 | inconclusive: 23.1 µM [inhibitor, single point] | –
Cc1ccc(C)n1-n1cnc2scc(-c3cccs3)c2c1=O | inactive | –
Cn1cc(Cl)c(C(=O)OCC(=O)c2ccccc2)n1 | inconclusive: 29.1 µM [activator, single point] | –
CCCSc1nc(SCC(=O)NCc2ccccc2)c2c3c(sc2n1)COC(C)(CC)C3 (stereo unspecified) | inconclusive: 6.51 µM [inhibitor, partial curve, poor fit] | –
COc1ccccc1-n1c(C)c(C(=O)O)c2cc(OC)c3ccccc3c21 | inactive | –
COC(OC)c1ccnc(-c2ccc(OC(=O)c3ccc(F)cc3)cc2)n1 | inconclusive: 29.1 µM [activator, single point] | –
CCCNC(=O)CC(NS(=O)(=O)c1ccc(NC(C)=O)cc1)C(C)C (stereo unspecified) | inconclusive: 10.3 µM [activator, partial curve, poor fit] | –
O=C(CSCc1ccccc1)N=Nc1c(O)[nH]c2ccccc12 | inconclusive: 18.4 µM [activator, partial curve] | –
CCOC(=O)c1ccc(N2CSC3=C(C#N)C(c4ccc(OC)cc4OC)CC(=O)N3C2)cc1 (stereo unspecified) | inactive | –
COc1ccccc1NS(=O)(=O)c1cc(NC(=O)Nc2cccc(C)c2)ccc1N1CCCCC1 | inconclusive: 18.4 µM [activator, partial curve, poor fit] | –
CCOc1ccccc1OCC(=O)Nc1ccc(OC)c(S(=O)(=O)N2CCCCC2)c1 | inconclusive: 16.4 µM [inhibitor, single point] | –
CCN(CC1CCCO1)C(=O)c1cc(COc2cc(C)c(Cl)c(C)c2)on1 (stereo unspecified) | inconclusive: 25.9 µM [activator, single point] | –
Cc1cccc2c1NC(=O)C21OCC(CO)([N+](=O)[O-])CO1 (stereo unspecified) | inconclusive: 16.4 µM [activator, single point] | –
CC(=O)n1cc(/C=N/NC(=O)c2ccc(Cl)cc2)c2ccccc21 | inconclusive: 13 µM [activator, partial curve] | –
CCCCN(C(=O)CCNC(=O)NC12CC3CC(CC(C3)C1)C2)c1c(N)n(CCC)c(=O)[nH]c1=O | inactive | –
COc1ccc(CN(CCC(C)C)S(=O)(=O)c2ccccc2Br)c(OC)c1 | inconclusive: 23.1 µM [inhibitor, partial curve, poor fit] | –
CCCC(C)C(=O)Nc1nc(C)c(-c2csc(Nc3ccc(Cl)cc3)n2)s1 (stereo unspecified) | inconclusive: 23.1 µM [inhibitor, partial curve] | –
O=[N+]([O-])c1cc(Cl)cc(/C=N\Nc2ccccn2)c1O | inconclusive: 4.11 µM [inhibitor, partial curve] | –
CCCOc1ccc(-c2csc3nc[nH]c(=O)c23)cc1 | inconclusive: 10.3 µM [activator, partial curve] | –
COc1ccccc1NC(=O)C(C)N(C)CCOc1ccccc1 (stereo unspecified) | inconclusive: 29.1 µM [inhibitor, single point] | –

SMILES | Potency | activity change, negative = inhibition
CCCCN(C)CCCNC(=O)c1ccc2c(c1)NC(=O)C(N1CCOCC1)S2 (stereo unspecified) | inactive | –
C=CCOc1ccc(C2C(C(=O)c3ccc(C)o3)=C(O)C(=O)N2Cc2cccnc2)cc1 (stereo unspecified) | inactive | –
O=C(CCN1CCCCC1)c1ccc2c(c1)OCCO2 | inactive | –
COc1ccc(-c2cc(=O)oc3cc(OCC(=O)Nc4ccccn4)ccc23)cc1 | inconclusive: 20.6 µM [activator, single point] | –
CCC(=O)Nc1cccc(-c2cn3ccccc3n2)c1 | inconclusive: 14.6 µM [activator, partial curve] | –
CCN1CNC(=S)N(CCc2ccccc2)C1 | inconclusive: 32.6 µM [activator, partial curve, poor fit] | –
O=C(/C=C/Nc1ccc(F)cc1F)c1ccco1 | inconclusive: 1.3 µM [activator, partial curve] | –
NC(=O)CC(NC(=O)c1ccccc1)c1ccc(NCc2ccccc2)c([N+](=O)[O-])c1 (stereo unspecified) | inactive | –
COc1ccc(CNn2c(-c3cccs3)nc3ccccc3c2=O)cc1OC | active: 8.2 µM | –
COc1cccc(-n2c(CN3CCN(c4ccc(C)cc4)C(C)C3)nc3ccc([N+](=O)[O-])cc3c2=O)c1 (stereo unspecified) | inconclusive: 23.1 µM [inhibitor, partial curve] | –
CC(=O)Nc1ccc(S(=O)(=O)N2CCN(C(=O)c3ncoc3-c3cccc(C)c3)CC2)cc1 | inconclusive: 11.6 µM [inhibitor, partial curve] | –
COc1cc([N+](=O)[O-])ccc1NC(=O)COC(=O)c1c[nH]c(=O)[nH]c1=O | inconclusive: 23.1 µM [activator, partial curve, poor fit] | –
CCOc1ccc(NS(=O)(=O)c2cc(NC(=O)CCC(=O)c3cccs3)ccc2Cl)cc1 | inconclusive: 29.1 µM [inhibitor, single point] | –
CCN(CCCn1c(=S)[nH]c2ccc(N3CCOCC3)cc2c1=O)c1ccccc1 | inconclusive: 4.11 µM [inhibitor, single point] | –
O=C(NCC(c1ccco1)N1CCN(c2ccccc2)CC1)c1ccc2c(c1)OCO2 (stereo unspecified) | – | inconclusive: 3.88% [activator]
CCN1C(c2ccc(F)cc2)=CS/C1=C(\C#N)c1nnc2n1-c1ccccc1SC2 | inconclusive: 20.6 µM [inhibitor, single point] | –
COc1cc(NC(=O)Cc2ccc(Cl)cc2)ccc1NC(=O)c1ccco1 | inconclusive: 20.6 µM [inhibitor, single point] | –
COC(=O)C1C(=O)c2c([nH]c(C(=O)OC3CCCCC3)c2C)CC1C (stereo unspecified) | inconclusive: 9.2 µM [activator, partial curve] | –
CC(=O)NC(=S)NNC(=O)COc1ccc([N+](=O)[O-])cc1 | inactive | –
COc1ccc(/C=N/Nc2cc(C)nc(N3CCOCC3)n2)cc1 | inconclusive: 23.1 µM [activator, single point] | –

A second format for three compounds above.
CCOc1ccccc1OCC(=O)Nc1ccc(OC)c(S(=O)(=O)N2CCCCC2)c1
  Potency: inconclusive: 16.4 µM [inhibitor, single point]
CCN(CC1CCCO1)C(=O)c1cc(COc2cc(C)c(Cl)c(C)c2)on1 (stereo unspecified)
  Potency: inconclusive: 25.9 µM [activator, single point]
Cc1cccc2c1NC(=O)C21OCC(CO)([N+](=O)[O-])CO1 (stereo unspecified)
  Potency: inconclusive: 16.4 µM [activator, single point]
